Assay results from paper PMC12116779.

The chains behind the UniProt entries cited, without tags or fusion partners.
UniProt Q9UBN7: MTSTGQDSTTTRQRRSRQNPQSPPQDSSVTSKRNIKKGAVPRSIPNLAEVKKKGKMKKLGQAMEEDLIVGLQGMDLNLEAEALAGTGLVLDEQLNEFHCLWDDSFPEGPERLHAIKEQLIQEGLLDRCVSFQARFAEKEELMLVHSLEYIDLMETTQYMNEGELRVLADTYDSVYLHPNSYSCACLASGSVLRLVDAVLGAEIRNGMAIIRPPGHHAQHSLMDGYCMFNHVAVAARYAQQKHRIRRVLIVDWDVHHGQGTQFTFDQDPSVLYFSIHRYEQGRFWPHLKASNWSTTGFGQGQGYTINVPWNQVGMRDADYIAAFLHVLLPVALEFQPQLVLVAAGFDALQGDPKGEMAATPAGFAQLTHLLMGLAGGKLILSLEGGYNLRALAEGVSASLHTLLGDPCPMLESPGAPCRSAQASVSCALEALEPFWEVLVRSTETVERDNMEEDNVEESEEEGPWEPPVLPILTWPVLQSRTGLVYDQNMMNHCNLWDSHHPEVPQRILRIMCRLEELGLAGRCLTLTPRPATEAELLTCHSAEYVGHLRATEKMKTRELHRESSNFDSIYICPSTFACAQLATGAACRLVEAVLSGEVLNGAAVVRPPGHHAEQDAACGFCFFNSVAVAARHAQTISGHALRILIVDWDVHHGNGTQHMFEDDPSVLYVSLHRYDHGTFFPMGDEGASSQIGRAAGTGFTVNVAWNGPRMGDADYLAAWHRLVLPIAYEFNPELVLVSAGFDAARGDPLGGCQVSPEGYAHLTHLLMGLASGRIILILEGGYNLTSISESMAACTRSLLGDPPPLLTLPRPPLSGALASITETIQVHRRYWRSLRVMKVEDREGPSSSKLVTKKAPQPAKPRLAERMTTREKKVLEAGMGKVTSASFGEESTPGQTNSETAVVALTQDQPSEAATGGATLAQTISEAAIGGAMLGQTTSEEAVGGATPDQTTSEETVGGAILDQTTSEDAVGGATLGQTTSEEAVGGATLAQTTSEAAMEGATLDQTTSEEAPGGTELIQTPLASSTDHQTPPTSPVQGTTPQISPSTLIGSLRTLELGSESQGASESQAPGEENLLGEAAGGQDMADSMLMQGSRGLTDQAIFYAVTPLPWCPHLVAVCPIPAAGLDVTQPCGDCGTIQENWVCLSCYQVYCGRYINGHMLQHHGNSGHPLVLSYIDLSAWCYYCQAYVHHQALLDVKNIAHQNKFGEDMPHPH

Target: GFP-HDAC6 (UniProt Q9UBN7)
Assay: affinity purification with mass spectrometry; GFP-HDAC6 or GFP-ENKD1 overexpressed in cells (HEK293T in the methods, HCE-2 in the legends), immunoprecipitated with anti-GFP beads, gel-based LC-MS

B1: enkurin domain-containing protein 1 (ENKD1), endogenous, human cells (protein, UniProt Q9H0I2 1-346)
chain: MCEGPSRISGPIPPDPTLCPDNYRRPTSAQGRLEGNALKLDLLTSDRALDTTAPRGPCIGPGAGEILERGQRGVGDVLLQLEGISLGPGASLKRKDPKDHEKENLRRIREIQKRFREQERSREQGQPRPLKALWRSPKYDKVESRVKAQLQEPGPASGTESAHFLRAHSRCGPGLPPPHVSSPQPTPPGPEAKEPGLGVDFIRHNARAAKRAPRRHSCSLQVLAQVLEQQRQAQEHYNATQKGHVPHYLLERRDLWRREAEARKQSQPDPAMPPGHTRMPENQRLETLTKLLQSQSQLLRELVLLPAGADSLRAQSHRAELDRKLVQVEEAIKIFSRPKVFVKMDD
  binding: binds

Results are given in words; binding and its absence hold for the method and conditions named. In cells and extracts the contact can be indirect. These calls come from enrichment with a bait or labelling near it, and not all partners need be listed.
